The assay relates to HEK293A TEAD-LUC reporter. As to the kind of experiment: TEAD-luciferase reporter activity (YAP activation), robust Z score vs plate; higher = stronger YAP/TEAD activation. As to conditions: 24 h.

The values that follow come from the supplement of paper PMC10735217.

Where a name gives a salt, the structure may show the parent alone. The list shows a part of the results. Single values are uncertain here, since repeats match poorly.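 Human kidney-derived cells stably carry a construct in which eight TEAD-binding elements drive luciferase, measured by luminescence in a drug-repurposing library screen. A hit is any compound whose signal exceeds the plate mean by more than five robust Z scores.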

As for `CC(C)(CCn1c(=O)[nH]c2ccccc21)NCC(O)COc1cccc2ccccc12` (stereo not given) [adimolol], the TEAD-luciferase reporter activity runs as follows: (compound concentration: 200 nM) inactive: -0.571; (compound concentration: 2 uM) inactive: -0.124; (compound concentration: 10 uM) inactive: 0.00666.
For `OCCOCCN1CCN(C2=Nc3ccccc3Sc3ccccc32)CC1`, the TEAD-luciferase reporter activity was inactive: -1.35 (compound concentration: 200 nM) and inactive: -1.17 (compound concentration: 10 uM).
As to `OCCOCCN1CCN(C2=Nc3ccccc3Sc3ccccc32)CC1` [quetiapine fumarate], the TEAD-luciferase reporter activity (compound concentration: 2 uM) was inactive: -2.25.
For `COc1ccnc(CSc2nc3cc4c(cc3[nH]2)C(C)(C)C(=O)C4(C)C)c1C`, the TEAD-luciferase reporter activity is inactive: 0.698 (compound concentration: 200 nM), inactive: -0.267 (compound concentration: 2 uM) and inactive: 1.9 (compound concentration: 10 uM).
Take `C/C=C/C[C@@H](C)[C@@H](O)[C@H]1C(=O)N[C@@H](CCC)C(=O)N(C)CC(=O)N(C)[C@@H](CC(C)C)C(=O)N[C@@H](C(C)C)C(=O)N(C)[C@@H](CC(C)C)C(=O)N[C@@H](C)C(=O)N[C@H](C)C(=O)N(C)[C@@H](CC(C)C)C(=O)N(C)[C@@H](CC(C)C)C(=O)N(C)[C@@H](C(C)C)C(=O)N1C` [Geclosporin]: the TEAD-luciferase reporter activity (compound concentration: 200 nM) is inactive: -0.774, the TEAD-luciferase reporter activity (compound concentration: 2 uM) is inactive: 0.199 and the TEAD-luciferase reporter activity (compound concentration: 10 uM) was inactive: 2.72.
On to `Cn1c([N+](=O)[O-])cnc1/C=N/N1CC(CN2CCOCC2)OC1=O` (stereo not given) [moxnidazole], for which the TEAD-luciferase reporter activity (compound concentration: 200 nM) is active: 5.9, the TEAD-luciferase reporter activity (compound concentration: 2 uM) is inactive: -0.305 and the TEAD-luciferase reporter activity (compound concentration: 10 uM) is inactive: -0.178.
Taken in the same sequence, the figures for `CCc1cc(CCc2nc3ccccc3o2)c(=O)[nH]c1C` were inactive: -1.09, inactive: 0.183 and inactive: -0.153.
Taken in the same sequence, the figures for `CCC(=O)[C@@]1(C)[C@H](C)C[C@H]2[C@@H]3CCC4=CC(=O)C=CC4(C)[C@H]3[C@@H](O)CC21C` (stereo not given in full) [Rimexolone] were inactive: 0.165, inactive: 1.51 and inactive: 2.51.
Taken in the same sequence, the figures for `C=C(N)NCCCC[C@H](N)C(=O)O` were inactive: -0.468, inactive: -0.771 and inactive: -0.751.
As to `O=C(CCNNC(=O)c1ccncc1)NCc1ccccc1`, the TEAD-luciferase reporter activity (compound concentration: 2 uM) is inactive: -0.236.
Regarding `O=C(CCNNC(=O)c1ccncc1)NCc1ccccc1` [N-benzyl-3-(2-isonicotinoylhydrazino)propanamide], the TEAD-luciferase reporter activity runs as follows: (compound concentration: 200 nM) inactive: -1.13; (compound concentration: 10 uM) active: 6.49.
With `Cc1c(C(=O)NN2CCOCC2)nn(-c2ccc(Cl)cc2Cl)c1-c1ccc(I)cc1`, the TEAD-luciferase reporter activity (compound concentration: 200 nM) was inactive: 0.0487, the TEAD-luciferase reporter activity (compound concentration: 2 uM) was inactive: -1.16 and the TEAD-luciferase reporter activity (compound concentration: 10 uM) is inactive: -1.13.
On the same counts, the results for `C[C@H]1CN(c2cccc(Cl)c2)CCN1CCCn1nc2ccccn2c1=O` are inactive: 0.121, inactive: -0.241 and inactive: 0.297.
As for `CNC(=O)c1cc(Oc2ccc(NC(=O)Nc3ccc(Cl)c(C(F)(F)F)c3)c(F)c2)ccn1` [Regorafenib], the TEAD-luciferase reporter activity (compound concentration: 200 nM) is inactive: -0.101, the TEAD-luciferase reporter activity (compound concentration: 2 uM) was inactive: -1.86 and the TEAD-luciferase reporter activity (compound concentration: 10 uM) was inactive: 3.49.
On to `CCC(CC)O[C@@H]1C=C(C(=O)O)C[C@H](N)[C@H]1NC(C)=O` [Oseltamivir Acid Hydrochloride], for which the TEAD-luciferase reporter activity (compound concentration: 2 uM) is inactive: -0.216.
Same read-out and setting: with `CCC(CC)O[C@@H]1C=C(C(=O)O)C[C@H](N)[C@H]1NC(C)=O` [Oseltamivir carboxylate] the figure was inactive: -0.861.
Turning to `O=C(O)C(Cc1c[nH]c2ccccc12)NS(=O)(=O)c1cccs1` (stereo not given) [N-(2-thienylsulfonyl)tryptophan], the TEAD-luciferase reporter activity by setting is: (compound concentration: 200 nM) inactive: -0.887; (compound concentration: 2 uM) inactive: -1.54; (compound concentration: 10 uM) inactive: -0.508.
On the same counts, the results for `CN(C)C(C(=O)Nc1ccc2c(=O)[nH]ccc2c1)c1ccsc1` (stereo not given) [Verosudil] are inactive: -0.116, inactive: 0.964 and inactive: 0.73.
Taken in the same sequence, the figures for `CCCCCCCCCCCCCCCCCC(=O)NCCCC[C@H](NC(=O)CC[C@@H](NC(=O)[C@H](C)NC(=O)[C@@H](C)O[C@H]1[C@H](O)[C@@H](CO)OC(O)[C@@H]1NC(C)=O)C(N)=O)C(=O)O` (stereo not given in full) [Romurtide] were inactive: -1.32, inactive: -0.973 and inactive: 0.826.
As to `CCC(=O)[O-]`, the TEAD-luciferase reporter activity (compound concentration: 200 nM) was inactive: -0.413, the TEAD-luciferase reporter activity (compound concentration: 2 uM) is inactive: 0.258 and the TEAD-luciferase reporter activity (compound concentration: 10 uM) was inactive: 0.822.
Taken in the same sequence, the figures for `C/C=C(/C(=C/C)c1ccc(O)cc1)c1ccc(O)cc1` were inactive: -0.194, inactive: -1.12 and inactive: -0.0288.
`COC[C@]1(OC)CC[C@H]2[C@@H]3CCC4=CC(=O)CCC4=C3[C@@H](c3ccc(/C=N/O)cc3)C[C@@]21C` [Asoprisnil]: the TEAD-luciferase reporter activity is inactive: -1.29 (compound concentration: 200 nM), inactive: -0.723 (compound concentration: 2 uM) and inactive: 3.76 (compound concentration: 10 uM).
`C[C@H]1O[C@@H](O[C@H]2[C@@H](O)C[C@H](O[C@H]3[C@@H](O)C[C@H](O[C@H]4CC[C@@]5(C)[C@H](CC[C@@H]6[C@@H]5CC[C@]5(C)[C@@H](C7=CC(=O)OC7)CC[C@]65O)C4)O[C@@H]3C)O[C@@H]2C)C[C@H](O)[C@@H]1O` [Digitoxin]: the TEAD-luciferase reporter activity (compound concentration: 2 uM) was inactive: -2.19.
In the case of `C[C@H]1O[C@@H](O[C@H]2[C@@H](O)C[C@H](O[C@H]3[C@@H](O)C[C@H](O[C@H]4CC[C@@]5(C)[C@H](CC[C@@H]6[C@@H]5CC[C@]5(C)[C@@H](C7=CC(=O)OC7)CC[C@]65O)C4)O[C@@H]3C)O[C@@H]2C)C[C@H](O)[C@@H]1O`, the TEAD-luciferase reporter activity is, setting by setting: (compound concentration: 200 nM) active: 39; (compound concentration: 10 uM) active: 6.99.
On to `C[C@H](CO)NC(=O)c1cccc(/C=C/CCCC(=O)N(C)C)c1`, for which the TEAD-luciferase reporter activity reads like this: (compound concentration: 200 nM) inactive: -0.993; (compound concentration: 2 uM) inactive: -0.192; (compound concentration: 10 uM) inactive: 1.18.
Taken in the same sequence, the figures for `C=CCn1c(=O)n([C@@H]2O[C@H](CO)[C@@H](O)[C@H]2O)c2nc(N)nc(O)c21` [Loxoribine] were inactive: 0.0692, inactive: 0.41 and inactive: -0.264.
